In PubChem BioAssay AID504444 (National Center for Advancing Translational Sciences (NCATS), 2011):
Out of some 360,000 compounds screened, about 7,500 (2.1%) were called active. This list was built around the results that the source calls inconclusive (neither active nor inactive); the mix of calls is not that of the screen. Calls come from the whole dose curve; as a rule, active = well fitted inhibition curve with a large enough effect; inconclusive = small, poorly fitted or top-dose-only effect, or effect the other way; inactive = flat fitted curve, though single readings scatter. Potencies of inconclusive entries are doubtful fits and often do not repeat.

Experiment: Nrf2 qHTS screen for inhibitors; note: nearly all actives have a fitted effect of over 60% in size
Details: A549 ARE-Fluc reporter, luciferase luminescence, 18-24 h; series mostly up to 46 µM
Outline: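 Concentration-response testing used A549 ARE_Fluc cells at 5000 cells/well. Following an 18-24 h compound incubation, viability was read by fluorescence (Ex 405/Em 525) and luciferase output by luminescence.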
Potency is the fitted concentration of half-maximal effect.

Structure (SMILES)	Potency
COc1ccccc1CNC(=O)c1ccc2c(c1)nnn2C1CCCC1	inconclusive: 25.9 µM [activator, partial curve, poor fit]
CC(C)(C)c1ccc(C(=O)NCC(=O)N2CCNC(=O)C2)cc1	inconclusive: 29.1 µM [activator, single point]
CCOC(=O)COc1cccc2c(=O)n(CC(=O)NCc3ccccc3)ccc12	inconclusive: 29.1 µM [activator, single point]
Cc1ccc2c(Cl)c(C(=O)Nc3cc(C)on3)sc2c1	inconclusive: 6.51 µM [activator, single point]
Cc1ccc(NC(=O)COc2ccc3c(c2)CCC3)nc1	inconclusive: 18.4 µM [activator, partial curve]
COCC(C)NC(=O)c1cccc([N+](=O)[O-])c1 (stereo unspecified)	inactive
CN(C)c1ccc(NC(=O)CSc2nc3ccccc3c(=O)n2C2CCCCC2)cc1	inconclusive: 16.4 µM [falling, partial curve, poor fit]
Cc1cc(C(F)(F)F)nc(NCc2cccnc2)n1	inconclusive: 29.1 µM [falling, single point]
CCCCCC(=O)Nc1ccc(N2CCN(CC)CC2)c(Cl)c1	inconclusive: 29.1 µM [activator, single point]
COC(=O)c1sc(NC(=O)c2ccc([N+](=O)[O-])o2)c(C#N)c1C	inconclusive: 32.6 µM [activator, single point]
Cc1cccc(C)c1NC(=O)C1C2C=CC(C2)C1C(=O)O (stereo unspecified)	inconclusive: 4.61 µM [falling, single point]
Cn1cc(C(=O)NCC2COc3ccccc3O2)c(=O)c2cc(S(=O)(=O)N3CCCCC3)ccc21 (stereo unspecified)	inactive
CCCSc1ccc(C(=O)Nc2ccc(Cl)cc2)cn1	inconclusive: 1.84 µM [activator, full curve]
Cc1ccc(-c2noc(CNCCCN(C)C)n2)cc1	inconclusive: 23.1 µM [activator, partial curve]
C/C(CCc1oc2c(Br)cc(Br)cc2c1-c1ccc(C)o1)=N\O	inconclusive: 29.1 µM [falling, single point]
COc1cc(CN2CCNC(=O)C2CC(=O)N2CCc3ccccc3C2)cc(OC)c1 (stereo unspecified)	inactive
O=C1N/C(=C/c2cccn2-c2ccc(F)cc2)C(=O)N1Cc1ccccc1	inconclusive: 18.4 µM [falling, single point]
COCCNC(=O)c1cc2c(s1)-c1ccc(Cl)cc1SC2	inconclusive: 0.92 µM [activator, full curve]
COc1cc(/C=C/c2ccc(/C=C/c3cc(OC)c(OC)c(OC)c3)cc2)cc(OC)c1OC	inconclusive: 23.1 µM [falling, single point]
COc1cccc(C(=O)Nc2ccc(C(=O)c3ccncc3)cc2)c1	inconclusive: 16.4 µM [falling, partial curve]
COC(=O)C1=C(C)NC(C)=C([N+](=O)[O-])C1c1ccccc1C(F)(F)F (stereo unspecified)	inconclusive: 32.6 µM [falling, single point]
COc1ccccc1C(=O)N1c2ccccc2C(C)(c2ccc(Cl)cc2)CC1(C)C (stereo unspecified)	inconclusive: 29.1 µM [falling, single point]

Structure (SMILES)	Potency
c1ccc(-c2nc3ccccc3[nH]2)cc1	inconclusive: 2.59 µM [activator, full curve, poor fit]
CCn1nc(C)c(Br)c1-c1nc(CS(=O)(=O)c2ccc(F)cc2)no1	inconclusive: 29.1 µM [falling, single point]
CC(=O)NS(=O)(=O)c1ccc(Nc2ccc([N+](=O)[O-])c3nonc23)cc1	inconclusive: 20.6 µM [activator, partial curve, poor fit]
CC(C(=O)N(C)Cc1cccc(F)c1)N1CCN(S(=O)(=O)c2ccc3c(c2)OCCCO3)CC1 (stereo unspecified)	inconclusive: 20.6 µM [falling, single point]
COc1cc(C(=O)OCCCN2CCCN(CCCOC(=O)c3cc(OC)c(OC)c(OC)c3)CC2)cc(OC)c1OC	inconclusive: 0.164 µM [falling, full curve, poor fit]
O=C(N/N=C/c1coc2ccc(Cl)cc2c1=O)c1ccncc1	inactive
CC(=O)N1CCN(CC(=O)Nc2ccccc2Sc2ccccc2)CC1	inconclusive: 23.1 µM [falling, partial curve, poor fit]
O=C(NCC(c1ccco1)N1CCc2ccccc21)C(=O)Nc1ccc(F)cc1F (stereo unspecified)	inconclusive: 16.4 µM [activator, single point]
COc1ccc(CCNC(=O)[C@H](C)N2C(=O)N3CCc4c([nH]c5ccccc45)[C@@]3(C)C2=O)cc1OC	active: 16.4 µM
O=C(CNS(=O)(=O)c1ccc(Br)s1)Nc1ccc2c(c1)OCCO2	inactive
O=C(Nc1nc(-c2ccccn2)cs1)c1ccc(Br)s1	inconclusive: 1.46 µM [falling, partial curve]
C=C1CCN(C(CC(C)C)C(=O)OC)S(=O)(=O)c2ccccc21 (stereo unspecified)	inconclusive: 25.9 µM [falling, partial curve, poor fit]
Cc1ccc(NC(=O)c2ncc(Cl)c(Cl)c2Cl)cc1C	inconclusive: 1.46 µM [activator, full curve]
NC1=NC(=O)C(=Cc2ccccc2)S1	inactive
CCn1cc(CN2CCC(C(=O)Nc3ccc(Oc4cccnc4)cc3)CC2)c(C)n1	inactive
CCC(=O)Nc1sc2c(c1C(=O)OC)CCN(Cc1ccccc1)C2	inactive
Cc1ccc(Cn2nc(C)c(NC(=O)CCCn3nc([N+](=O)[O-])c(Cl)c3C)c2C)cc1	inconclusive: 8.2 µM [falling, partial curve]
CN(C)c1ccc(-c2noc(C3CC(=O)N(c4ccc5c(c4)OCCO5)C3)n2)cc1 (stereo unspecified)	inactive
O=S(=O)(/N=C(/Sc1ccc(Cl)cc1)c1ccccc1)c1ccccc1	inactive
Cc1cc(C(C)(C)C)ccc1OCCCCN1CCCC1	inactive
Cc1cc(C)c2nc(N3C(=O)C(O)=C(C(=O)c4ccco4)C3c3ccc(O)cc3)sc2c1 (stereo unspecified)	inactive
CCn1c(=O)n(CC(=O)N2CC(C)CC(C)C2)c(=O)c2ccccc21 (stereo unspecified)	inconclusive: 2.31 µM [activator, partial curve, poor fit]

Laid out differently: results already given.

| Structure (SMILES) | Potency |
| --- | --- |
| O=C(CNS(=O)(=O)c1ccc(Br)s1)Nc1ccc2c(c1)OCCO2 | inactive |
| O=C(Nc1nc(-c2ccccn2)cs1)c1ccc(Br)s1 | inconclusive: 1.46 µM [falling, partial curve] |
| C=C1CCN(C(CC(C)C)C(=O)OC)S(=O)(=O)c2ccccc21 (stereo unspecified) | inconclusive: 25.9 µM [falling, partial curve, poor fit] |
| Cc1ccc(NC(=O)c2ncc(Cl)c(Cl)c2Cl)cc1C | inconclusive: 1.46 µM [activator, full curve] |
| NC1=NC(=O)C(=Cc2ccccc2)S1 | inactive |
| CCn1cc(CN2CCC(C(=O)Nc3ccc(Oc4cccnc4)cc3)CC2)c(C)n1 | inactive |

(more compounds)

Structure (SMILES)	Potency
COC(=O)c1ccc(CSc2ccc3nnc(-c4cccc(F)c4)n3n2)o1	inconclusive: 25.9 µM [activator, partial curve]
CC1=C(C(=O)OCc2ccc3c(c2)OCO3)C(c2cccc([N+](=O)[O-])c2)NC(=O)N1 (stereo unspecified)	inconclusive: 5.8 µM [falling, full curve]
CC1CCN(C(=O)c2ccc(Br)c(S(=O)(=O)N3CCOCC3)c2)CC1	inactive
CCn1c(SCc2ccc(C(=O)Nc3nccs3)cc2)nnc1-c1ccc(N)cc1	inconclusive: 18.4 µM [falling, single point]
COc1ccc(C(=O)Nc2c3c(nn2-c2ccc(Cl)cc2)CS(=O)(=O)C3)cc1	inconclusive: 2.31 µM [falling, partial curve, poor fit]
Cc1nnc2c(SC(C)C)nc3ccccc3n12	inconclusive: 29.1 µM [falling, single point]
CCN1C(=O)[C@H]2[C@@H](c3ccc(-c4cccc(Cl)c4)cc3)N[C@@](C)(C(=O)OC)[C@H]2C1=O	inactive
Cc1ccc(C(=O)Nc2nc(C)c(C(=O)N(C)C)s2)o1	inconclusive: 14.6 µM [activator, single point]
Cc1cccc(NC(=O)c2ccc(S(=O)(=O)NCc3cccnc3)cc2)c1C	inconclusive: 20.6 µM [falling, single point]
O=C(NCc1cccs1)c1nn(-c2ccccc2F)nc1CO	inconclusive: 23.1 µM [falling, single point]
CCCCNC(=O)Cn1ncc2c(C)n(Cc3cccc(Cl)c3)c(C)c2c1=O	inconclusive: 9.2 µM [falling, partial curve, poor fit]
CCNC1=C(Cl)C(=O)c2ccccc2C1=O	inconclusive: 5.8 µM [falling, partial curve, poor fit]
CCOc1ccc2nc(SCC)[nH]c2c1	inconclusive: 1.84 µM [activator, full curve, poor fit]
COc1ccc(-c2nn(CC(=O)NCc3ccccc3)c3c2cnc2ccc(F)cc23)cc1	inconclusive: 29.1 µM [activator, single point]
CCCN(CCC)S(=O)(=O)c1ccc(C(=O)Nc2ccc(OCC(=O)N3CCOCC3)cc2)cc1	inconclusive: 4.11 µM [falling, single point]
Cc1cc(C)cc(C(=O)Nc2ccc(NC(=O)c3cccs3)cc2)c1	active: 18.4 µM
COCCCN1C(=O)c2ccc(C(=O)NCCc3ccccc3)cc2C1=O	inconclusive: 0.58 µM [activator, full curve, poor fit]
O=C(COC(=O)/C=C/c1ccc(F)cc1)Nc1cccc(S(=O)(=O)N2CCCC2)c1	inconclusive: 29.1 µM [falling, single point]
Cc1ccc(-c2nnn(CC(=O)N(c3ccccc3F)C(C(=O)NC3CCCC3)c3ccncc3)n2)o1 (stereo unspecified)	inconclusive: 4.61 µM [falling, single point]
CN(C)S(=O)(=O)N1CCN(S(=O)(=O)c2ccccc2)CC1	inconclusive: 9.2 µM [falling, partial curve, poor fit]
O=c1c(C(c2c(O)nc3n(c2=O)CCS3)c2cccc3ccccc23)c(O)nc2n1CCS2	inactive
C#CCCc1cscc1/C=[N+](\[O-])c1ccc(C(=O)OCC)cc1	inconclusive: 14.6 µM [activator, partial curve, poor fit]
